In patent publication US5891848A, “Peptide fragments” (Nippon Zoki Pharmaceutical Co., Ltd., priority 1995, dated 1999):
At least one peptide structure holds a part that was inferred or is arguable (an end, a ring closure or a residue). No end group written: not given here.

What was measured:
[1] = system: senility-accelerated mice (SAM-P/8 strain); assay: Passive avoidance learning test; assay type: in vivo, mouse
[2] = system: senility-accelerated mice (SAM-P/8 strain); assay: Water maze task (Morris' water maze task); assay type: in vivo, mouse; details: SAM-P/8, ninth month from birth; dosing as in passive avoidance test; compared to the decrease for control (SAM-P/8); FIG. 2

Sequence: FNLPLGNYKKPKLLY
- latency (seconds): time until the mouse came into the dark box in the test trial ([1]; SAM-P/8, sixth month after birth, s.c. once a week from third week after birth, group 1 150 μg/kg/day, group 2 80 μg/kg/day, test trial 24 hours after acquisition trial, compared to control (SAM-P/8), FIG. 1): unexpectedly higher
- action on the disabled learning and remembering behavior ([1]; SAM-P/8 strain, summary statement): excellent action of improving
- diving time (latency) until escape to the platform, Block 1 to Block 4 [2]: unexpectedly decreased
